# In all, about 220,000 compounds went through this assay and about 770 (0.35%) were called active. Inconclusive results, whose numbers are uncertain, are shown with a selection of clear calls. Rule as the data show it: active = binding response below about 49% or above about 150%; inconclusive = no clear call, values can overlap the other calls; inactive = in between.
# Chains of the proteins cited; added tags and fusions are not shown.
# UniProt P09471, whole entry, looked up: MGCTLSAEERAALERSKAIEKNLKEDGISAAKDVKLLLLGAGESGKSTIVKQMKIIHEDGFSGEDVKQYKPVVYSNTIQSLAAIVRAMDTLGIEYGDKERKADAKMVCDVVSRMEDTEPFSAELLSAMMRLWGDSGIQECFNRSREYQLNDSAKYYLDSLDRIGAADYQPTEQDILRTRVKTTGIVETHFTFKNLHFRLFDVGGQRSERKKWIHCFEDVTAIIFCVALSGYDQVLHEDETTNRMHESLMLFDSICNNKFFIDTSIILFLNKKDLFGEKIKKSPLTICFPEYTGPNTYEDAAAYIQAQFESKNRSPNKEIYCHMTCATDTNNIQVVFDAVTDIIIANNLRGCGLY
# Molecular target: Guanine nucleotide-binding protein G(o) subunit alpha (Homo sapiens) (UniProt P09471)
# Experiment: RGS7-Galphao binding modulators, primary screen, biochemical, multiplexed bead flow cytometry (AID 1439);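 also: fluorescent Galphao held in activated GDP-AlF4 state binding bead-coupled RGS7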
# Settings: at 10 µM, actives lie on both sides
row,Compound,binding response (% of control)
1,Cc1ccc(C)c2c1cc(C)c1nnc(SCC(=O)Nc3cccc(C(=O)O)c3)n12,inconclusive: 124%
2,C=CCn1c(CSc2nnc(-c3ccccc3)n2C)n[nH]c1=S,inconclusive: -37.5%
3,CC1OC(Nc2ccc(N=Nc3ccccc3)cc2)C(O)C(O)C1O (stereo unspecified),inconclusive: 107%
4,COCCCn1c(=O)/c(=C\c2cccc(OC)c2OC)s/c1=C(/C#N)C(=O)Nc1ccc(C(=O)O)cc1,inconclusive: 91.3%
5,N#Cc1ccc(NC(=O)COC(=O)CCc2nc3ccccc3c(=O)[nH]2)cc1,inconclusive: 108%
6,CC/C(C)=N/Nc1nc(-c2cc3cccc(OC)c3oc2=O)cs1,inconclusive: -135%
7,Cc1cc(NC(=O)c2ccc3c(c2)C(=O)N(CC(C)C)C3=O)no1,inconclusive: 114%
8,COC(=O)C1C/C(=N\NS(=O)(=O)c2ccc(C)cc2)c2ccsc2C1 (stereo unspecified),inactive: 99.9%
9,O=C(CN1CCN(Cc2ccc(Cl)cc2)CC1)N/N=C/C=C/c1ccccc1[N+](=O)[O-],inactive: 101%
10,O=C(NNc1nc(-c2ccc(Br)cc2)cs1)c1ccco1,inconclusive: 100%
11,Cn1c2c(c(=O)n3ncnc13)CCCC2,inconclusive: 81.7%
12,O=C(Nc1ccccc1)C1CC(O)CN1S(=O)(=O)c1ccc([N+](=O)[O-])cc1 (stereo unspecified),inconclusive: 125%
13,Cc1cccc(C(=O)N/N=C2\CS(=O)(=O)N(C)c3ccsc32)c1,inconclusive: 104%
14,CCOc1ccc(/C=N/NC(=O)Cc2cccs2)cc1,inconclusive: 74.2%
15,CCOC(=O)C1=C(C)NC(SC)=C(C#N)C1CC(C)C (stereo unspecified),inconclusive: 39.7%
16,CC1CN(C2CCN(C(=O)COc3ccc(Cl)cc3)CC2)CC(C)O1 (stereo unspecified),inactive: 100%
17,CCN=C1SC(CC(N)=O)C(=O)N1CC (stereo unspecified),inactive: 103%
18,OC1(c2ccc(Cl)cc2)CCN(Cc2cn[nH]c2-c2ccccc2)CC1,inconclusive: 9.12%
19,C=CCOc1cccc(/C=N/NC(=O)CN(c2cc(Cl)ccc2OC)S(=O)(=O)c2ccc(C)c([N+](=O)[O-])c2)c1,inactive: 121%

row,Compound,binding response (% of control)
1,COP(=O)(OC)C(Nc1ccc(C)cc1)c1ccc([N+](=O)[O-])cc1 (stereo unspecified),inactive: 107%
2,O=C(CN1CCCC1)Nc1ccccc1Sc1ccc(Cl)cc1,inactive: 96%
3,Clc1ccccc1Cn1nnc2c(NCCN3CCOCC3)ncnc21,inactive: 117%
4,O=C(Nc1ccccc1)C1CCCCN1S(=O)(=O)c1ccccc1 (stereo unspecified),inconclusive: 100%
5,O=C(OCC(=O)c1ccc[nH]1)c1ccc2ccccc2n1,inconclusive: 85.7%
6,CCOc1ccccc1Cn1c(=O)sc2ccccc21,inconclusive: 111%
7,CCNC(=S)N/N=C(\C)c1ccco1,inconclusive: 92.4%
8,COc1ccc(C(=O)CN2Cc3ccccc3C2=N)cc1,inconclusive: 89.8%
9,C=CCc1cccc([C@@H]2[C@@H](C)CC[C@H]3C(=O)N4[C@@H](c5cc(OC)c(OC)c(OC)c5)c5[nH]c6ccccc6c5C[C@H]4C(=O)N23)c1,inactive: 97.3%
10,CC(C)OP(=O)(OC(C)C)C(Nc1ccc(C(=O)O)cc1)c1ccccc1 (stereo unspecified),inconclusive: 86.6%
11,CCN(CC)CCNC(=O)c1cc([N+](=O)[O-])c(N(C)C)cc1OC,inconclusive: 94.7%
12,COc1ccc(CCN(C)c2ncnc3sccc23)cc1OC,inconclusive: 118%
13,C/C=C\C(=O)Nc1cccc(C2=NOC3(C2)C[C@@H](C(N)=O)N(C(=O)c2ccc(Cl)cc2)C3)c1 (stereo partly specified),inconclusive: 130%
14,CC(=O)/C(C=Nc1noc(C)c1Br)=C(\C)O,inconclusive: 37.5%
15,COC(=O)c1ccccc1NC(=O)CNC(=O)c1ccc(OC)c(OC)c1,inconclusive: 87.3%
16,CN(C)C=Nc1ccccc1C1C=NNC1=O (stereo unspecified),inconclusive: 91.3%
17,COc1ccc(/C=N\Nc2ccc([N+](=O)[O-])cc2[N+](=O)[O-])c(C(=O)O)c1OC,inconclusive: 36.3%
18,CC12CC3(C)CC(C)(C1)CC(C(=O)NCC(=O)O)(C2)C3,inconclusive: 80.7%
19,CCN(C(=O)COC(=O)c1ccc(Cl)cc1N)C1CCCCC1,inconclusive: 91.1%

row,Compound,binding response (% of control)
1,O=C(Nc1ccccc1)c1sc(N2CCOCC2)nc1-c1ccccc1,inactive: 105%
2,CCOC(=O)C1CCCN(C(=O)c2ccc3c(c2)N(Cc2ccccc2)C(=O)c2ccccc2S3=O)C1 (stereo unspecified),inactive: 93%
3,Cc1ccc2nc3c(cc2c1)c(NC(=O)c1ccccn1)nn3CC(C)C,inactive: 112%
4,CCN(CC)CCCN=Cc1c(O)n(-c2cccc(C)c2)c(=O)c2ccccc12,inconclusive: 93.2%
5,COC(=O)c1ccc(OCCCCN2CC(C)OC(C)C2)cc1 (stereo unspecified),inconclusive: 101%
6,O=C(NNC(=O)c1ccc(Oc2ccc(C3SCCS3)cc2)o1)c1ccc(Cl)cc1,inconclusive: 92.3%
7,Cc1ccc(-c2noc(-c3ccoc3C)n2)cc1,inconclusive: 78%
8,COc1ccc(CNC(=O)N[C@@H](CC(C)C)C(=O)O)cc1OC,inconclusive: 110%
9,Cc1ccc(NC(=O)CC2C(=O)NC3CCCCC3N2C(=O)c2ccc(F)cc2)cc1C (stereo unspecified),inactive: 99.5%
10,C=CC(=O)N1C/C=C\C(c2ccc(OC)cc2)N(Cc2ccc(F)cc2)C(=O)C1 (stereo unspecified),inconclusive: 149%
11,CC(C)(C)OC(=O)N1CCCN(C(=O)Nc2ccccc2)CC1,inconclusive: -37.8%
12,CCOC(=O)CNC(=O)CNC(=O)c1nn(-c2ccc(OC)c(Cl)c2)c(=O)c2ccccc12,inactive: 99.7%
13,CCNC(=O)Nc1ccccc1C(=O)OC,inconclusive: 96.7%
14,CC(C)COP(=O)(OCC(C)C)C(Nc1ccccc1)c1ccccc1 (stereo unspecified),inconclusive: 122%
15,COc1ccc(N/C(=N/c2nc(C)cc(C)n2)NC(=O)c2ccccc2)cc1,inconclusive: 121%
16,COc1ccc(CCNC(=O)C2CC3Cn4c(nc5cc(Cl)c(Cl)cc54)C3N2C)cc1 (stereo unspecified),inconclusive: 94.6%
17,CCOC(=O)C(=CNc1ccc(NC2=NCC(C)(C)S2)cc1)C(=O)OCC,inconclusive: 5.59%
18,N=C1/C(=C\c2ccc(-c3cccc(C(=O)O)c3)o2)C(=O)N=C2SC=C(c3ccccc3)N12,inconclusive: 51%

# Sorted by length of the SMILES (rising): three of the compounds above
row,Compound,binding response (% of control)
3,Cc1ccc2nc3c(cc2c1)c(NC(=O)c1ccccn1)nn3CC(C)C,inactive: 112%
17,CCOC(=O)C(=CNc1ccc(NC2=NCC(C)(C)S2)cc1)C(=O)OCC,inconclusive: 5.59%
9,Cc1ccc(NC(=O)CC2C(=O)NC3CCCCC3N2C(=O)c2ccc(F)cc2)cc1C (stereo unspecified),inactive: 99.5%

# Reference: PubChem BioAssay AID1439 (NMMLSC, 2008)
